Publication PMC6754446
Results are given in words; binding and its absence hold for the method and conditions named.

Sequences of proteins named here, by UniProt entry; tags and fusion partners are left off. Residues count along the entry.
UniProt P78352, residues 313-393: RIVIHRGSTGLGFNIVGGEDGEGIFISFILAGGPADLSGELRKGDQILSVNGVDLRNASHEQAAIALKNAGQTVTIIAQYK

Key:
[1] = target: OTULINcat (aa 80–352) (human) (UniProt Q96BN8); assay: condition: 20–30 µM OTULINcat variant in the cell, 150–450 µM PDZ variant in the syringe; ITC; 25 °C, 20 mM HEPES pH 7.4, 200 mM NaCl, 2 mM TCEP; 20–30 µM OTULINcat variant in the cell, 150–450 µM PDZ variant in the syringe; single-site model; both purified
[2] = target: VPS26A, purified recombinant (UniProt O75436); assay: SEC; purified recombinant proteins, Superdex 75 10/300, 20 mM Tris pH 7.5, 150 mM NaCl, 2 mM DTT; 500 µl of 65 µM complexes at equimolar ratio or in isolation; both purified

Row | binding [1] | binding [2] | Substance
1 | no binding |  | PDZ domain of PSD95 (PDZ 3) (from UniProt P78352 313-393) (domain or fragment)
2 |  | no binding (tested: 65 µM) | OTULINcat (aa 80–352) (from UniProt Q96BN8 80-352) (domain or fragment)
